The results in this text go back to PubChem BioAssay AID977622 (Broad Institute, 2014).

The list shows a part of the results. Shown are side measurements of this screen, not its main read-out; they come without a call.

Experiment [1] in a line: wild-type E. coli growth inhibition versus h38 humanized strain – h38 mutant RFP, wild-type GFP, cherry-pick, dose response (AID 977622). The settings on record: E. coli mixed culture, 24 h, total growth OD600 at 50 uM.
The subject of experiment [2] is E. coli h38 humanized mutant ribosome RFP fluorescence, mixed culture, 24 h. Described as above. The following applies: h38 mutant RFP at 50 uM.

Turning to `CC1CCCN(c2nc(N(C)c3ccccc3)nc(N)c2[N+](=O)[O-])C1` (stereo unspecified), the activity change was -39.8% in experiment [1] and -37.3% in experiment [2]. Taken in the same sequence, the figures for `COc1ccc(NC(=O)Nc2cccc3c2O[C@@H](CN(C)S(=O)(=O)c2ccc(Cl)cc2)[C@H](C)CN([C@@H](C)CO)C3=O)cc1` were -22.9% and -4.28%.

For the molecule `COc1cccc(S(=O)(=O)N2CCCCN3[C@@H](CO)[C@@H](c4ccc(C#CC(C)C)cc4)[C@@H]3C2)c1`, the activity change in experiment [1] was -95.6%; in experiment [2], -59.9%. Turning to `O=C(COC(=O)c1cccc(S(=O)(=O)N2CCCCC2)c1)NCc1cccc(Cl)c1`, the activity change in experiment [1] was -30.5%; in experiment [2], -20.9%.

As to `CCC(=O)N1[C@H](CO)[C@@H]2c3ccccc3N(C(=O)Nc3ccc(Cl)cc3)C[C@@H]21`, the activity change in experiment [1] is -7.33%; in experiment [2], 1.62%. Taken in the same sequence, the figures for `Nc1ccccc1C#CC(=O)c1ccccc1` were -45% and -39.9%. For the molecule `CN(C)S(=O)(=O)c1cccc(C(=O)Nc2ccc(C(=O)Nc3cccc(S(N)(=O)=O)c3)cc2)c1`, the results for the activity change in experiment [1] and in experiment [2] were -8.9% and -19%, respectively. Take `Cc1cc(C(=O)Nc2ccc3ccccc3c2)c(C)o1`: the activity change in experiment [1] was -27.7%. For `O=C(CN(c1ccc(F)cc1)S(=O)(=O)c1ccccc1)Nc1ccccc1C(=O)O`, the values for the activity change in experiment [1] and in experiment [2] were -7.23% and 66.9%, respectively.

Take `CCN1CCN(c2c(Cl)cccc2NC(=O)c2ccc([N+](=O)[O-])o2)CC1`: the activity change in experiment [1] was -63%; in experiment [2], -44.7%.

Turning to `Cc1ccccc1-n1ncc2c(SCC(=O)N3c4ccccc4CC3C)ncnc21` (stereo unspecified), the activity change in experiment [1] is -68.4%; in experiment [2], 18%. Taken in the same sequence, the figures for `O=C(CSc1nnc(COc2cccc3cccnc23)o1)c1ccc(F)cc1` were -16.9% and -9.09%.

Regarding `Cc1ccn2cc(-c3cccc(NC(=O)c4cccs4)c3)nc2c1`, the activity change in experiment [1] was 7.08%; in experiment [2] it was -39%. Regarding `COc1ccc(-c2nc3ccc(Cl)cn3c2Cc2cccc(F)c2)cc1OC`, the activity change in experiment [1] is -76.9%; in experiment [2], -12.9%.

On to `N#Cc1ccc(OCC(=O)N2CCN(S(=O)(=O)c3ccc(Cl)s3)CC2)cc1`, for which the activity change was -37.4% in experiment [1] and -12.4% in experiment [2].

As for `COc1cccc(C(=O)NC2CC3CCCC(C2)N3S(=O)(=O)c2ccccc2)c1` (stereo unspecified), the activity change in experiment [1] is -54.5%; in experiment [2], 2.3%.
